Reference: article PMC4110025
No constants are given. Whether binding was seen depends on the method and setting. Binding seen in cells or lysates may run through a third protein. Some entries that bind do so weakly or less than the wild type.

Sequences of proteins named here, by UniProt entry; tags and fusion partners are left off.
UniProt P05412: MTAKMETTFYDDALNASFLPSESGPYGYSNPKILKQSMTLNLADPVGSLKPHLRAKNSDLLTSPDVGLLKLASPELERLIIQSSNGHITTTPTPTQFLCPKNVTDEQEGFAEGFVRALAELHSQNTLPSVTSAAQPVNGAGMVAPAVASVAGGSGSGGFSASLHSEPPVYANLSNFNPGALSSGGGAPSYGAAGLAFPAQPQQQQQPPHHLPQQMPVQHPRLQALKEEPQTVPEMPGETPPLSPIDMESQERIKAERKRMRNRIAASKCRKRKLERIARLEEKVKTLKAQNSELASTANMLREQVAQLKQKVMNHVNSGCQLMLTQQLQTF

Molecular target: c-Jun (human (endogenous in A549)) (UniProt P05412)
Experiment: co-IP; 0.5 mg total lysate of A549 cells (stably transfected with HPV-16 E6, E7 or controls) incubated with 2 µg anti-c-Jun antibody overnight at 4°C, protein A agarose; IP lysis buffer 20 mmol/L Tris pH 7.5, 150 mmol/L NaCl, 1% Triton X-100; blot for HIF-1α and c-Jun; normal rabbit IgG as negative …

binding: binds
Substance: hypoxia-inducible factor-1α (from UniProt Q16665-3 1-850)
